Assay results taken from paper PMC5105168.
These are yes or no findings as the source states them, for the method shown. For some assays here: Binding seen in cells or lysates may run through a third protein. Some entries that bind do so weakly or less than the wild type. For some assays here: Where a sequence is shown, tags or fusion partners need not be part of it.

Sequences of proteins named here, by UniProt entry; tags and fusion partners are left off. A change or cut given only in a name is not applied to a line headed by its entry.
UniProt O43823: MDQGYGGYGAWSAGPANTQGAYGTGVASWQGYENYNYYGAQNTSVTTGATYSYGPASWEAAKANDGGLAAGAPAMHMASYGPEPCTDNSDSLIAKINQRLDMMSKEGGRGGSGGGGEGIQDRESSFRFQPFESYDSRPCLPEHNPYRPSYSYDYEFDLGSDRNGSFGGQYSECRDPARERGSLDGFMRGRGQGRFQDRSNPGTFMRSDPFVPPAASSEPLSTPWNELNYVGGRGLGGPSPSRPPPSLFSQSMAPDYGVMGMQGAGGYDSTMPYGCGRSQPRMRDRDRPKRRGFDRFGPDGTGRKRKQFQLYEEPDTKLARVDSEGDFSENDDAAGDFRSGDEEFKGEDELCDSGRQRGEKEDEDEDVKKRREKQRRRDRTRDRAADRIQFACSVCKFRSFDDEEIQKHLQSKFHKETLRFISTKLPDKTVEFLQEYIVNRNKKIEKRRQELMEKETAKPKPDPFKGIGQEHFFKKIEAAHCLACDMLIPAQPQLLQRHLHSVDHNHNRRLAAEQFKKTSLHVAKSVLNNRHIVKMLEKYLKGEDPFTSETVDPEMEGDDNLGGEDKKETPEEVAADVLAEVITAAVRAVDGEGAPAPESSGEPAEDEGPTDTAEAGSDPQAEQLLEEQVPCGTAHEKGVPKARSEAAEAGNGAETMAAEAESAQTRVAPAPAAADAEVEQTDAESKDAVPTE

Columns and labels:
[1] = biological target: MBP fused to AKAP95 wild type (human) (UniProt O43823); experiment: pull-down; 293T cells co-transfected with MBP-tagged and FH-tagged AKAP95 constructs, precipitated by amylose resin, immunoblot
[2] = biological target: T1, GST-hnRNP M (human (cDNA from 293 cells)) (UniProt P52272); experiment: pull-down; GST fusions bound to glutathione resin, purified F-AKAP95 proteins in solution, BC200, 0.1% NP40, immunoblot; both purified
T1 sequence: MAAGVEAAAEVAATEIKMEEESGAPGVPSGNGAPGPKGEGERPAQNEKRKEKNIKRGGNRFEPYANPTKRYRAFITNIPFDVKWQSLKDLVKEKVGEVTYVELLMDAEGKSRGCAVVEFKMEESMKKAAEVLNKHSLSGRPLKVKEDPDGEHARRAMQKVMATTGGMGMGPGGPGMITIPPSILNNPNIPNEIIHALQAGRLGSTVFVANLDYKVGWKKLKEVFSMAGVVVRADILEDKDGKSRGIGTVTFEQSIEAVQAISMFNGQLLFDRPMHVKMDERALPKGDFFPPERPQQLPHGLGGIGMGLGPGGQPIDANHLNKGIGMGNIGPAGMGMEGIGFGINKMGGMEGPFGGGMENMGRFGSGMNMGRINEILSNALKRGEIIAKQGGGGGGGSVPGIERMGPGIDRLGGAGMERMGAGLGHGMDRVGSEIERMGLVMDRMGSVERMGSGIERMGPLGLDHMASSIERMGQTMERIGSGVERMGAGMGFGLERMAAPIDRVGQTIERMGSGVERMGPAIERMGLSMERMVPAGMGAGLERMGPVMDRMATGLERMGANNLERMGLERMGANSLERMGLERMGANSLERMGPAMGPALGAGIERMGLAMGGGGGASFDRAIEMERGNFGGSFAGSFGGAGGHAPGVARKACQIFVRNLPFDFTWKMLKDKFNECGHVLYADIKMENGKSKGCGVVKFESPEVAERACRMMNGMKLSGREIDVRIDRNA

[3] = biological target: T2, purified His-tagged hnRNP F (UniProt P52597); experiment: pull-down; purified His-hnRNP F bound to Ni resin, purified F-AKAP95 proteins in solution, BC200, 0.1% NP40, immunoblot; both purified
T2 sequence: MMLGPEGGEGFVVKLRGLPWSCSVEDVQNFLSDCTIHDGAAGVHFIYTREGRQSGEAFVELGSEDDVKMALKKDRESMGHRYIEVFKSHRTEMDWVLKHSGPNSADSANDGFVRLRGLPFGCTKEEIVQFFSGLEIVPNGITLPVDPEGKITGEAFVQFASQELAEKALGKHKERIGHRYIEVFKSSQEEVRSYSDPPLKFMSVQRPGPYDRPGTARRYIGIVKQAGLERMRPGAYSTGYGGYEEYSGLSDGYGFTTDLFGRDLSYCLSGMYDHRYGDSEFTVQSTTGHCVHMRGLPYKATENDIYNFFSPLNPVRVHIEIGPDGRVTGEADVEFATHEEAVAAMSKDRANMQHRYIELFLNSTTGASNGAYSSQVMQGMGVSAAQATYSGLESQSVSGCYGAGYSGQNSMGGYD

Row | binding [1] | binding [2] | binding [3] | Substance
1 | binds |  |  | FLAG-HA-tagged AKAP95 (101–692) (from UniProt O43823 101-692) (domain or fragment)
2 | binds |  |  | FLAG-HA-tagged full-length human AKAP95 (from UniProt O43823 1-692)
3 |  | binds | binds | purified Flag-tagged AKAP95 (from UniProt O43823 1-692)
4 | binds |  |  | FLAG-HA-tagged AKAP95 (1–210) (from UniProt O43823 1-210) (domain or fragment)
